# “And” between values parts separate entries of the source, which are not always exact repeats. Identical values can stand only once. Inconclusive results, whose numbers are uncertain, are shown with a selection of clear calls. For part of these data: A potency beside an inconclusive call is a rough fit, not a confirmed value. More than one record can exist for a structure, and the calls need not agree. The source made the active and inactive calls. Unless noted, calls follow the shape of the full dose curve.
# By UniProt entry, the sequences of proteins in these tests, tags left out. Where a name states a change or a piece, a line headed by the entry shows the natural chain unless it says otherwise.
# UniProt Q969F8, whole entry, looked up: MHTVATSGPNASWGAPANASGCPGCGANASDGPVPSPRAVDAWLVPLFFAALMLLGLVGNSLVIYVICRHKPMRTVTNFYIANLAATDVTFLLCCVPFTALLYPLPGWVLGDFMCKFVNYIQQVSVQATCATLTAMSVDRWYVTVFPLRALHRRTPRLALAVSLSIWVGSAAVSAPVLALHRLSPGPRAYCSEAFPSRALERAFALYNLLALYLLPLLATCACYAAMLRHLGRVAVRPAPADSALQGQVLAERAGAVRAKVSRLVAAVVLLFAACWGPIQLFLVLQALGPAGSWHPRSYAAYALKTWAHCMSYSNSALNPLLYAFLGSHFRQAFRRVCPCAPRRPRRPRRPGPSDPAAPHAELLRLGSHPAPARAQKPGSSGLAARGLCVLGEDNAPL
# UniProt P28223, whole entry, looked up: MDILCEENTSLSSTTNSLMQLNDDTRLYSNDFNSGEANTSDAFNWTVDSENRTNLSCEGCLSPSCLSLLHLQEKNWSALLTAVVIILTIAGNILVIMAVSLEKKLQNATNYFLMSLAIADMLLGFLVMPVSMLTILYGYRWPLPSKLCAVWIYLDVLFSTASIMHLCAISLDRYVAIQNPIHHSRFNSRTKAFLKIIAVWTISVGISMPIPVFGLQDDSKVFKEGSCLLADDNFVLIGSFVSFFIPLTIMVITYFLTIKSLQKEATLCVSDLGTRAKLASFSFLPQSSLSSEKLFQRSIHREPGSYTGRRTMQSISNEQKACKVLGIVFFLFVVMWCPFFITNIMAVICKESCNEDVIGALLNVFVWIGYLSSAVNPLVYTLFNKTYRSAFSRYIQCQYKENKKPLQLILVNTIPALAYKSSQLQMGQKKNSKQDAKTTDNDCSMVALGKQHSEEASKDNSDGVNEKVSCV
# UniProt P11229: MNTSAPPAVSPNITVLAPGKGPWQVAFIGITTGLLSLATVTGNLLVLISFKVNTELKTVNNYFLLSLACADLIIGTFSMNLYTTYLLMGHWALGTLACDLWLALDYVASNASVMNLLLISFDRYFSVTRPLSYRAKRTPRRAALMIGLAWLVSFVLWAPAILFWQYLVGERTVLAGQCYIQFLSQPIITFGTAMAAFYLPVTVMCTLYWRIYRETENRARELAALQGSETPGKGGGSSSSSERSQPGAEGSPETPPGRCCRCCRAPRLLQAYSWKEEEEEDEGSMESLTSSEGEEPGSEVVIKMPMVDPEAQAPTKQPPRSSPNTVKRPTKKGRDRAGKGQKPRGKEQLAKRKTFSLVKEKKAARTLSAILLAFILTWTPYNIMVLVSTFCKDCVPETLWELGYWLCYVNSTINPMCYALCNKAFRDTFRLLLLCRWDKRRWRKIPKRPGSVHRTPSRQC
# UniProt P14416, whole entry, looked up: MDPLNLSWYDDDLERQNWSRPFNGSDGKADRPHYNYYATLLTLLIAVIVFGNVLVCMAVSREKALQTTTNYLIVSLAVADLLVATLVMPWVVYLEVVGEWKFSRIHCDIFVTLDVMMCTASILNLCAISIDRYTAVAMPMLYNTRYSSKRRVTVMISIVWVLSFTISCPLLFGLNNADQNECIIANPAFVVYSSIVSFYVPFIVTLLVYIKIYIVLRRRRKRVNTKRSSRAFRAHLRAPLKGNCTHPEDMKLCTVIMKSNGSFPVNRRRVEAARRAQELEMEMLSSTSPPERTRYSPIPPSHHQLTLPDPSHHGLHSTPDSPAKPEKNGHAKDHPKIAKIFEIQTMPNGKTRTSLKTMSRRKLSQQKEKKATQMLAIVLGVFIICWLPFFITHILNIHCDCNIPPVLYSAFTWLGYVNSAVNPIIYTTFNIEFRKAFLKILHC
# UniProt P30968: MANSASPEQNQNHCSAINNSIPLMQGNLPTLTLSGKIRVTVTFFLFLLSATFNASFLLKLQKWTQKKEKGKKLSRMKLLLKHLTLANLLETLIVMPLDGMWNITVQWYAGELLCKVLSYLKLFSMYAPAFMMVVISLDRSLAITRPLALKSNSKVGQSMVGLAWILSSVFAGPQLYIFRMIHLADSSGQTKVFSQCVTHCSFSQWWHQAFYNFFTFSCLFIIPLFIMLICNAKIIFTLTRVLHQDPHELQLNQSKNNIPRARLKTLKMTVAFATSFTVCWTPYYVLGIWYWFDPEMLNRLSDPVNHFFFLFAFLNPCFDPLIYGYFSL
# Legend:
# [1] = Nuclear factor erythroid 2-related factor 2/antioxidant responsive element (Nrf2/ARE) small molecule agonists: luciferase reporter gene qHTS assay in human keratinocytes (AID 1919969); details: KeratinoSens HaCaT ARE-luciferase, luminescence, 24 h; activity, positive = activation: at 92.4 µM (top of the series); also: nearly all actives have a fitted effect of over 35% in size; also: potency is read from the fitted curve at half-maximal effect
# [2] = molecular target: KiSS-1 receptor (Homo sapiens) (UniProt Q969F8); assay: Human kisspeptin (KISS1R) small molecule agonists, calcium flux assay in KISS1R-HEK293 cells (AID 1920064; active = well fitted activation curve with a large enough effect in the repeat runs; inconclusive = weak or mixed curves; also: potency is read from the fitted curve at half-maximal effect; as to activation: % is scaled to controls: 0 for no effect and ±100 for the full control effect)
# Summary of the method: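 Cells plated and incubated 18 h; dye added, 1 h at 37 C; compounds in DMSO pinned in; signal read at 480/540 nm every second for 3 min. Each compound tested at 15 concentrations in triplicate.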
# [3] = cAMP Responsive Elements (CRE) small molecule antagonists, cell-based qHTS assay (AID 1963591; active = well fitted inhibition curve with a large enough effect in the signal ratio in the repeat runs, not every such curve was filed as active; inconclusive = weak or mixed curves, or effect the other way; the % refers to the signal ratio; also: potency is read from the fitted curve at half-maximal effect; as to activity change, negative = inhibition: % is scaled to controls: 0 for no effect and ±100 for the full control effect); details: CRE-bla HEK293T, beta-lactamase FRET ratio; activity change, negative = inhibition: at 92.4 µM (top of the series) unless noted
# Summary of the method: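 Antagonist mode: test compounds are co-incubated with the adenylyl cyclase activator NKH477 (0.25 uM final) on CRE-bla HEK293T cells for 3 h at 37 °C, followed by LiveBLAzer substrate loading.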
# [4] = molecular target: Beta-2 adrenergic receptor (Homo sapiens) (UniProt P07550); assay: Adrenergic beta2 receptor (ADRB2) small molecule agonists, cell-based qHTS assay (AID 1963593); details: CHO-ADRB2 cells, cAMP HTRF, 30 min; also: potency is read from the fitted curve at half-maximal effect;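 as to activation: CHO cells stably overexpressing human ADRB2; % is scaled to controls: 0 for no effect and ±100 for the full control effect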
# Summary of the method: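 CHO cells stably over-expressing ADRB2 were plated overnight at 37C, then dosed with compounds plus a stimulation mix containing 100uM IBMX and 25uM Ro-20-1724 for 0.5hr at room temperature. cAMP was measured by HTRF competition, 1hr.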
# [5] = p53 small molecule agonists, cell-based qHTS assay with human liver microsomes (AID 1963577); details: HCT-116 p53RE-bla with human liver microsomes, ratio, 16 h; also: potency is read from the fitted curve at half-maximal effect; as to activation: % is scaled to controls: 0 for no effect and ±100 for the full control effect
# Summary of the method: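 Compounds act here after metabolic activation: human liver microsomes and NADPH, both at 0.5 mg/mL final, were co-added to p53RE-bla cells. Incubation ran 16 h at 37 C, followed by LiveBLAzer detection.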
# [6] = p53 small molecule agonists, cell-based qHTS assay with human liver microsomes: qHTS cell viability counter screen (AID 1963579); also: potency is read from the fitted curve at half-maximal effect; nearly all actives have a fitted effect of over 45% in size
# Summary of the method: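 Cells carrying the p53 response-element beta-lactamase reporter are treated for 16 h at 37 C with test compounds in the presence of human liver microsomes and NADPH (both 0.5 mg/mL final); ATP-based CellTiter-Glo luminescence then reports viability.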
# [7] = p53 small molecule agonists, cell-based qHTS assay with rat liver microsomes: qHTS cell viability counter screen (AID 1963580); also: nearly all actives have a fitted effect of over 45% in size; also: potency is read from the fitted curve at half-maximal effect
# Summary of the method: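 Intracellular ATP, by CellTiter-Glo luminescence, defines viability. HCT-116 p53RE-bla cells, 4,000 per well, were compound-treated in the presence of rat liver microsomes and NADPH for 16 h at 37 C.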
# [8] = p53 small molecule agonists, cell-based qHTS assay: qHTS cell viability counter screen (AID 1963581); also: potency is read from the fitted curve at half-maximal effect; nearly all actives have a fitted effect of over 45% in size
# Summary of the method: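 Cells: HCT-116 with p53 response element-driven beta-lactamase. Treatment: 16 h, 37 C, compounds in DMSO. Read: CellTiter-Glo luminescence after 30 min RT.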
# [9] = molecular target: 5-hydroxytryptamine receptor 2A (Homo sapiens) (UniProt P28223); assay: 5-hydroxytryptamine receptor 2A (HTR2A) small molecule antagonists, cell-based qHTS assay (AID 1963586); also: potency is read from the fitted curve at half-maximal effect; nearly all actives have a fitted effect of over 45% in size
# Summary of the method: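 Antagonist-mode intracellular calcium assay: DOI (4 nM) added after 5 min compound pre-incubation at room temperature to dye-loaded HTR2A-CHO cells. Fluorescence followed for 3 min, sampled every second.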
# [10] = molecular target: 5-hydroxytryptamine receptor 2A (Homo sapiens) (UniProt P28223); assay: 5-hydroxytryptamine receptor 2A (HTR2A) small molecule agonists, cell-based qHTS assay (AID 1963587); also: potency is read from the fitted curve at half-maximal effect; nearly all actives have a fitted effect of over 30% in size
# Summary of the method: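 Kinetic calcium-flux fluorescence (2 min, 1 sec intervals) after compound addition in agonist mode. HTR2A-CHO cells were cultured 18 h, then dye-loaded 1 h at 37 C.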
# [11] = molecular target: Muscarinic acetylcholine receptor M1 (Homo sapiens) (UniProt P11229); assay: Cholinergic receptor muscarinic 1 (CHRM1) small molecule antagonists, cell-based qHTS assay (AID 1963588); also: nearly all actives have a fitted effect of over 40% in size; also: potency is read from the fitted curve at half-maximal effect
# Summary of the method: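 CHRM1-CHO calcium-flux assay, antagonist mode. Cells were seeded 18 h, dye-loaded 1 h at 37 C and given compound for 5 min at RT, then acetylcholine was added at 50nM. FDSS fluorescence was read 3 min; 15 concentrations, three runs.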
# [12] = molecular target: Muscarinic acetylcholine receptor M1 (Homo sapiens) (UniProt P11229); assay: Cholinergic receptor muscarinic 1 (CHRM1) small molecule agonists, cell-based qHTS assay (AID 1963589); also: potency is read from the fitted curve at half-maximal effect; nearly all actives have a fitted effect of over 35% in size
# Summary of the method: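 Agonist-mode qHTS in CHO cells stably carrying human muscarinic M1. Intracellular calcium is tracked by fluorescence every second after compound transfer; each compound runs at 15 concentrations in three independent runs.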
# [13] = cAMP Responsive Elements (CRE) small molecule agonists, cell-based qHTS assay (AID 1963590); details: CRE-bla HEK293T, beta-lactamase FRET ratio, 3 h; activation: at 92.4 µM (top of the series) unless noted; also: potency is read from the fitted curve at half-maximal effect
# Summary of the method: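 Agonist mode qHTS in CRE-bla HEK 293T cells: compounds dosed from DMSO for 3 h at 37 C/5% CO2, followed by LiveBLAzer B/G FRET substrate for 2 h at room temperature.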
# [14] = molecular target: D(2) dopamine receptor (Homo sapiens) (UniProt P14416); assay: Dopamine D2 receptor (DRD2) small molecule agonists, cell-based qHTS assay (AID 1963594); details: HEK293-DRD2 cAMP HTRF, agonist mode, 30 min; activation: at 92.4 µM (top of the series) unless noted; also: nearly all actives have a fitted effect of over 35% in size; also: potency is read from the fitted curve at half-maximal effect
# Summary of the method: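 cAMP accumulation in DRD2-HEK293 cells measured by HTRF after 1 h detection; compounds added 10 min before NKH477 (200nM […]) forskolin-analogue stimulation, 30 min at room temperature, with Ro20-1724 present at 0.1 mM final.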
# [15] = molecular target: D(2) dopamine receptor (Homo sapiens) (UniProt P14416); assay: Dopamine D2 receptor (DRD2) small molecule antagonists, cell-based qHTS assay (AID 1963595; active = well fitted inhibition curve with a large enough effect in the signal ratio in the repeat runs, with a control signal flat; inconclusive = weak or mixed curves, or effect the other way; the % refers to the signal ratio; also: potency is read from the fitted curve at half-maximal effect); details: HEK293-DRD2 cAMP HTRF antagonist mode; activity change, negative = inhibition: at 92.4 µM (top of the series) unless noted
# Summary of the method: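 HTRF cAMP read-out at 665 and 620 nm emission (340 nm excitation). Antagonist mode: compounds were tested against 12 nM quinpirole in DRD2-HEK293 cells, with 200 nM NKH477 raising cAMP and 0.1 mM Ro20-1724 blocking its breakdown.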
# [16] = p53 small molecule agonists, cell-based qHTS assay with rat liver microsomes (AID 1963578); details: HCT-116 p53RE-bla, beta-lactamase ratio, 16 h; activation: at 66 µM (top of the series) unless noted; also: potency is read from the fitted curve at half-maximal effect
# Summary of the method: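 Read-out is beta-lactamase reporter fluorescence (LiveBLAzer, 2 h, room temperature, dark) in p53RE-bla cells treated 16 h at 37 C with compound, rat liver microsomes and NADPH, both 0.5 mg/mL final.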
# [17] = p53 small molecule agonists, cell-based qHTS assay (AID 1963582; active = well fitted activation curve with a large enough effect in the signal ratio in the repeat runs, not every such curve was filed as active; inconclusive = weak or mixed curves; the % refers to the signal ratio; also: potency is read from the fitted curve at half-maximal effect); details: HCT-116 p53RE-bla reporter, beta-lactamase FRET ratio, 16 h; activation: at 66 µM (top of the series) unless noted
# Summary of the method: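 Quantitative HTS in p53RE-bla cells: after a 5 h settling period, compounds delivered in DMSO were left on cells for 16 h at 37 C, and reporter induction was measured as fluorescence following 2 h substrate loading.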
# [18] = molecular target: Beta-2 adrenergic receptor (Homo sapiens) (UniProt P07550); assay: Adrenergic beta2 receptor (ADRB2) small molecule antagonists, cell-based qHTS assay (AID 1963592); details: CHO-ADRB2 cells, isoproterenol-stimulated cAMP HTRF ratio, 0.5 h; activity change, negative = inhibition: at 92.4 µM (top of the series) unless noted; also: potency is read from the fitted curve at half-maximal effect; nearly all actives have a fitted effect of over 50% in size
# Summary of the method: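 Cells (CHO, stable ADRB2 overexpression) incubated 18-20hr at 37C; compounds added from DMSO; agonist mix (1nM isoproterenol, 100uM IBMX, 25uM Ro-20-1724) added; 0.5hr RT; d2-cAMP and anti-cAMP-cryptate added; 1hr RT; 665/615 nm read.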
# [19] = molecular target: Gonadotropin-releasing hormone receptor (Homo sapiens) (UniProt P30968); assay: Human gonadotropin-releasing hormone receptor (GnRHR) small molecule agonists, calcium flux assay in GnRHR-HEK293 cells (AID 1920063); details: calcium flux fluorescence, agonist mode; activity change: at 57.6 µM (top of the series), stronger effect = higher value unless noted; also: % is scaled to controls: 0 for no effect and ±100 for the full control effect; nearly all actives have a fitted effect of over 35% in size
# Summary of the method: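 Cells: HEK293 stably expressing human GnRHR. Steps: overnight (18 h) culture, 1 h calcium dye loading at 37 C, compound addition, kinetic fluorescence read at 480/540 nm. Each compound tested at 15 concentrations in triplicate.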
# [20] = activation: at 92.4 µM (top of the series) unless noted
# [21] = activation: at 66 µM (top of the series) unless noted
compound,measurement,setting,value
Oc1ccc(Sc2ccc(O)cc2)cc1,Potency,[1],active: 57.2 µM
same,Potency,[2],inactive
same,Potency,[3],inactive
same,Potency,[4]; [20],inconclusive: 64.2 µM [inhibitor]
CCCCCCCCCCCCN,Potency,[1],"inconclusive: 69.1 µM [activator, single point]"
same,activation,[5]; [21],inconclusive: -6.24%
same,activation,[5]; at 66 µM (top of the series),inactive: -5.48% and inactive: -0.258%
same,Potency,[6],active: 40.8 µM
same,Potency,[7],"inactive and inconclusive: 51.3 µM [cytotoxic, single point]"
same,Potency,[8],"inconclusive: 51.3 µM [cytotoxic, single point]"
same,Potency,[9],"inconclusive: 47.6 µM [inhibitor, single point] and active: 5.94 µM"
same,Potency,[10],"inconclusive: 49.4 µM [activator, single point]"
same,Potency,[11],"inconclusive: 26.5 µM [inhibitor, partial curve]"
same,Potency,[12],active: 24.5 µM
same,Potency,[13],"inconclusive: 30.6 µM [fluorescent, full curve]"
same,Potency,[4]; [20],"inactive and inconclusive: 27.3 µM [activator, partial curve, poor fit]"
same,activation,[14],inconclusive: -2.78%
same,Potency,[15],active: 43.3 µM
O=[Se](O)O,Potency,[1],inactive and active: 5.23 µM
same,Potency,[5]; [21],"inconclusive: 9.84 µM [activator, partial curve, poor fit]"
same,activation,[16],inconclusive: 12.9% [at 13.6 µM]
same,Potency,[6],"inconclusive: 51.4 µM [cytotoxic, single point]"
same,Potency,[8],"inconclusive: 2.77 µM [rising, full curve]"
same,Potency,[9],"inconclusive: 3.76 µM [inhibitor, partial curve, poor fit]"
same,Potency,[3],inconclusive: 61.2 µM [partial curve]
same,"activity change, negative = inhibition",[3],inactive: 2.98% [at 18.9 µM]
same,Potency,[4]; [20],"inconclusive: 0.587 µM [inhibitor, single point]"
same,activation,[4]; [20],inconclusive: 4.79%
O=C1OC2(c3ccccc31)c1cc(I)c(O)c(I)c1Oc1c2cc(I)c(O)c1I,Potency,[1],active: 33.1 µM
same,Potency,[2],"inconclusive: 55.1 µM [activator] and inconclusive: 33.4 µM [activator, single point]"
same,Potency,[16],"inconclusive: 11.1 µM [fluorescent, single point]"
same,Potency,[6],"inconclusive: 24.8 µM [cytotoxic, single point]"
same,Potency,[8],"inconclusive: 51.5 µM [rising, partial curve, poor fit]"
same,Potency,[17],inconclusive: 51.5 µM [activator]
same,Potency,[9],"inconclusive: 0.0013 µM [inhibitor, full curve, poor fit]"
same,Potency,[12],active: 33.4 µM [middle of 4 runs]
same,Potency,[18],inconclusive: 39 µM [middle of 4 runs]
same,Potency,[14],active: 39 µM [middle of 4 runs]
same,Potency,[15],"inconclusive: 39 µM [activator, partial curve] [middle of 4 runs]"
COc1ccc(C(=O)Nc2nc3ccccc3c(NCc3ccccc3)c2C#N)cc1,Potency,[1],inactive
same,Potency,[19],inactive
same,Potency,[6],"inconclusive: 0.408 µM [cytotoxic, single point]"
same,Potency,[11],inactive
same,Potency,[13],"inconclusive: 48.6 µM [rising, partial curve]"
same,Potency,[18],"inconclusive: 68.6 µM [falling, partial curve, poor fit]"
same,activation,[4]; [20],inconclusive: -7.24%
Oc1cc2ccccc2c2ccccc12,Potency,[1],inactive
same,Potency,[5]; [21],"inconclusive: 7.25 µM [rising, partial curve, poor fit]"
same,activation,[16],inconclusive: 11.6%
same,Potency,[6],active: 10.2 µM
same,Potency,[7],active: 6.46 µM
same,Potency,[17],"inconclusive: 25.7 µM [falling, partial curve]"
same,Potency,[13],"inconclusive: 12.2 µM [rising, full curve]"
same,Potency,[3],"inconclusive: 12.2 µM [rising, full curve]"
same,activation,[4]; [20],inconclusive: -65.6%
same,Potency,[14],"inconclusive: 68.6 µM [falling, partial curve, poor fit]"
same,Potency,[15],active: 30.6 µM
COC(=O)C(C)(C)C,Potency,[1],inactive
same,Potency,[19],inactive
same,Potency,[8],"inconclusive: 32.9 µM [cytotoxic, partial curve, poor fit]"
same,activation,[17],inconclusive: 16.8%
same,Potency,[4]; [20],"inconclusive: 6.96 µM [inhibitor, partial curve, poor fit]"
C=C(C)C(=O)O[C@H]1C[C@@H]2CC[C@@]1(C)C2(C)C,Potency,[1],active: 963 nM and inactive
same,Potency,[5]; [21],"inconclusive: 25.6 µM [fluorescent, partial curve, poor fit]"
same,Potency,[16],"inconclusive: 51 µM [activator, single point]"
same,Potency,[7],active: 7.21 µM
same,Potency,[17],"inconclusive: 18.1 µM [rising, partial curve]"
same,Potency,[13],"inconclusive: 68.2 µM [rising, single point]"
same,Potency,[3],"inconclusive: 27.1 µM [rising, partial curve]"
same,activation,[4]; [20],inconclusive: 31.4%
same,activation,[4]; at 92.4 µM (top of the series),inactive: 2.06%
same,Potency,[15],inactive

# Source: PubChem BioAssay (Tox21)
